Some entries share one result that the patent states for a list of compounds.
Key:
Type in all cases: in vivo
[1] = system: Thrips tabaci (Onion Thrips); test: Activity against Thrips tabaci, mixed population, feeding/residual contact activity, preventive (Example B3); details: 400 ppm; sunflower leaf discs sprayed; mortality checked after 6 days
[2] = system: Frankliniella occidentalis (Western Flower Thrips); test: Activity against Frankliniella occidentalis (Example B6); details: 200 ppm; bean leaf discs or bean plants; reduction of population vs non treated, 6 days (leaf discs) or 14 days (plants)
[3] = system: Bemisia tabaci (Tobacco White Fly); test: Activity against Bemisia tabaci, larvicide, contact/feeding (Example B7); details: 200 ppm; bean plants with N-2 nymphs, spray chamber; emerged adults vs non treated three weeks later
[4] = system: Nilaparvata lugens (Brown Rice Planthopper); test: Activity against Nilaparvata lugens, larvicide, feeding/contact (Example B8); details: 400 ppm; rice seedlings, spray chamber, N3 nymphs; checked 6-12 days after treatment
[5] = system: Aphis craccivora (Cowpea Aphid); test: Activity against Aphis craccivora, mixed population, systemic/feeding (Example B10); details: 25 ppm; roots of infested pea seedlings in test solution; mortality 6 days later
[6] = system: Aphis craccivora (Cowpea Aphid); test: Translaminar activity against Aphis craccivora (Example B11); details: 200 ppm; French bean leaves, upper side painted, aphids on lower side; mortality 5 days later
[7] = system: Aonidiella aurantii (Red Scale); test: Activity against Aonidiella aurantii (Example B12); details: 200 ppm; potato tubers dipped; crawlers of next generation vs non treated, 6-8 weeks after application
[8] = system: Myzus persicae (Green Peach Aphid); test: Drench activity against Myzus persicae (Example B13); details: 25 ppm; pea seedlings in field soil, drench application; mortality 7 days after infestation

Measured: activity

C#Cc1cc(C)cc(C)c1C1=C(OC(=O)OCC)C2(CCN(OC)CC2)N(OC2CCCO2)C1=O (centres unmarked) [Compound P1.9]
over 80%: all assays above

C=Cc1cc(C)c(C2=C(OC(=O)OCC)C3(CCN(OC)CC3)N(C)C2=O)c(C)c1 [Compound P1.6]
over 80%: [3] | [4] | [5] | [6] | [7]

C=Cc1cc(C)cc(C)c1C1=C(O)C2(CCN(OC)CC2)NC1=O [Compound P2.3, 3-(2,4-Dimethyl-6-vinyl-phenyl)-4-hydroxy-8-methoxy-1,8-diaza-spiro[4.5]dec-3-en-2-one]
over 80%: [1] | [3] | [4] | [6] | [7]

C#Cc1cc(C)cc(C)c1C1C(=O)N(OC2CCCO2)C2(CCN(OC)CC2)C1=O (centres unmarked) [Compound P2.8]
not listed: [2] | [6]
over 80%: all other assays above

C#Cc1cc(C)cc(C)c1C1C(=O)NC2(CCN(OC)CC2)C1=O (centres unmarked) [Compound P2.6]
over 80%: [1]

C=Cc1cc(C)cc(C)c1C1=C(OC(=O)OCC)C2(CCN(OC)CC2)NC1=O [Compound P1.3]
over 80%: [1] | [3] | [4] | [6] | [7]

C#Cc1cc(C)cc(C)c1C1=C(OC(=O)OCC)C2(CCN(OC)CC2)NC1=O [Compound P1.7]
over 80%: [1]

C#Cc1cc(C)cc(C)c1C1C(=O)N(C)C2(CCN(OC)CC2)C1=O (centres unmarked) [Compound P2.7]
not listed: [1]
over 80%: all other assays above

C#Cc1cc(C)cc(C)c1C1=C(OC(=O)OCC)C2(CCN(OC)CC2)N(C)C1=O [Compound P1.8]
not listed: [2] | [7]
over 80%: all other assays above

From patent US20130210625A1, “SPIROHETEROCYCLIC PYRROLIDINE DERIVATIVES BASED PESTICIDES” (SYNGENTA CROP PROTECTION LLC, priority 2010, published 2013)
